The target in the test is EPRS (glutamyl-prolyl tRNA synthetase), human 세포에서 원래 발현된 EPRS (Hela cell lysate) (human) (UniProt P07814). The experiment in a line: western blot on HeLa cell lysate (clones from panning on EPRS WHEP domain antigen).

Sequences of proteins named here, by UniProt entry; tags and fusion partners are left off.
UniProt P07814: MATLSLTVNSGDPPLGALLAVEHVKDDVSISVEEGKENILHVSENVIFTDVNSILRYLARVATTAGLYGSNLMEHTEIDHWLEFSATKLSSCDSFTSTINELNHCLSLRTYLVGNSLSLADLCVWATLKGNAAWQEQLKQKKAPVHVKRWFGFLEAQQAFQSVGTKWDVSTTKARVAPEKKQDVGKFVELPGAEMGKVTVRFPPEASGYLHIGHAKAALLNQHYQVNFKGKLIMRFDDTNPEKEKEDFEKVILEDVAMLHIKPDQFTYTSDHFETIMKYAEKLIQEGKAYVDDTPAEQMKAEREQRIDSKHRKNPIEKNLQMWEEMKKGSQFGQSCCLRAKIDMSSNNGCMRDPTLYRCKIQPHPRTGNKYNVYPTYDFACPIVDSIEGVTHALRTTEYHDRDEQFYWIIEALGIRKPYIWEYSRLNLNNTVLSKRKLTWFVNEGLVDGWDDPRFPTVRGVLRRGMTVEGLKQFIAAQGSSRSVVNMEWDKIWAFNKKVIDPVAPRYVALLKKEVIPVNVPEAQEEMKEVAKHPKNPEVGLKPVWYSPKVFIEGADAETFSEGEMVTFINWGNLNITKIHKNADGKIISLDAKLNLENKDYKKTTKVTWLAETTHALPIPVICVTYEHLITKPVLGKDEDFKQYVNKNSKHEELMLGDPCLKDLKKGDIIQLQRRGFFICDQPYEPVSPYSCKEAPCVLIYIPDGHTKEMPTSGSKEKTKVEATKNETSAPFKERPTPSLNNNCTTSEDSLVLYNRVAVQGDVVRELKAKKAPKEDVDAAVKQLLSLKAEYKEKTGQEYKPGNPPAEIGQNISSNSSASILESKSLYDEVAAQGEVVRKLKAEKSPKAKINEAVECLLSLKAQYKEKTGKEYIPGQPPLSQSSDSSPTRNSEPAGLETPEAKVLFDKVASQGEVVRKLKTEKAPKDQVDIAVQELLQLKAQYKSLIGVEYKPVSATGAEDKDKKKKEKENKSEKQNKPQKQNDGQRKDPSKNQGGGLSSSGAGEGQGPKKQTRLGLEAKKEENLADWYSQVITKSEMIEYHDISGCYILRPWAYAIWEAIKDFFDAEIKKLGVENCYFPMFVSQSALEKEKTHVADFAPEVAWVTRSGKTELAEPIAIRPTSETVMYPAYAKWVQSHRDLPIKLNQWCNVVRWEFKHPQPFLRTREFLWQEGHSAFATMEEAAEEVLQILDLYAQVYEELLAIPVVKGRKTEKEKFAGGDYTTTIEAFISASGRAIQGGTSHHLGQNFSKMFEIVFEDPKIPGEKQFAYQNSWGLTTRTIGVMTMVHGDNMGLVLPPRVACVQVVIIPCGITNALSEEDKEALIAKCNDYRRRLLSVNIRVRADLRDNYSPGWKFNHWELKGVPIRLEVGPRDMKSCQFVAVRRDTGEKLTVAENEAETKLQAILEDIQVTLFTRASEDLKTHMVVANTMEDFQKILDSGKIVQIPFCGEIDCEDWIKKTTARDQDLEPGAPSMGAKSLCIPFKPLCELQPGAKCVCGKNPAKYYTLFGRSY

No constants are given. Whether binding was seen depends on the method and setting. Some binding calls cover weakened binding; strength is not graded here.

B1: SEQ ID NO 14 (scFv)
scFv: EVQLLESGGGLVQPGGSLGLSCAASGFTFSDYDMSWVRRAPGKGLEWVSAISSGGGNTYYADSVKGRFTISRDNSKNTLYLQMNSLRAEDTAVYYCARNRFVFDYWGQGTLVTVSSGGGGSGGGGSGGGGSQSVLTQPPSASGTPGQRVTISCSGSSSNIGNNAVNWYQQLPGTAPKLLIYANSHRPSGVPDRFSGSKSGTSASLAISGLRSEDEADYYCGTWDYSLNGYVFGGGTKLTVL
As to B1, the binding result was “binds”.

Values taken from patent KR20160093502A.
